# Reference: PMC5614653
# Amino acid sequences for entries named in this document (tags omitted).
# UniProt Q9UKV8: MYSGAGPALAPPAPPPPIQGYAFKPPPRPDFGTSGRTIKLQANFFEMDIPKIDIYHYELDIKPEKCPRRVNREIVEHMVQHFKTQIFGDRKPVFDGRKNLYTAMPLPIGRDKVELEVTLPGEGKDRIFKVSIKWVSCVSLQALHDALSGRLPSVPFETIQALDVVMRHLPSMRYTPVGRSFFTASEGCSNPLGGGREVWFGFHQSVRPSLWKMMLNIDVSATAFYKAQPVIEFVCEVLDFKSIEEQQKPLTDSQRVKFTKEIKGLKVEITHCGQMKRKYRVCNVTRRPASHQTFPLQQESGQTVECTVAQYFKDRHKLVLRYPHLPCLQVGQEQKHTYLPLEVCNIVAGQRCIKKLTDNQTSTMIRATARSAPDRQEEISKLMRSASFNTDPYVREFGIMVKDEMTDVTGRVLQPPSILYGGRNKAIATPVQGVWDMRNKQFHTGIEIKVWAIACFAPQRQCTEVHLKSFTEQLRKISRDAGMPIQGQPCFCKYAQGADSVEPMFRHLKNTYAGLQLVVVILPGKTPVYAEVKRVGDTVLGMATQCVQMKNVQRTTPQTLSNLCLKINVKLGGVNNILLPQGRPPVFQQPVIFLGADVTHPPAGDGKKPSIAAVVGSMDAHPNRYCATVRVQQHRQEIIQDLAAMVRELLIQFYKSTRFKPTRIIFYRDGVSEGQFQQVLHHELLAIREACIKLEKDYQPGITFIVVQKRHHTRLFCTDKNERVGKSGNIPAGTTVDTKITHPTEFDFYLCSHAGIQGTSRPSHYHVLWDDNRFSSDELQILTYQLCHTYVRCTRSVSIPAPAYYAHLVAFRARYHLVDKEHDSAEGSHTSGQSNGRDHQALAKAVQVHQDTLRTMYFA
# UniProt Q8NDV7: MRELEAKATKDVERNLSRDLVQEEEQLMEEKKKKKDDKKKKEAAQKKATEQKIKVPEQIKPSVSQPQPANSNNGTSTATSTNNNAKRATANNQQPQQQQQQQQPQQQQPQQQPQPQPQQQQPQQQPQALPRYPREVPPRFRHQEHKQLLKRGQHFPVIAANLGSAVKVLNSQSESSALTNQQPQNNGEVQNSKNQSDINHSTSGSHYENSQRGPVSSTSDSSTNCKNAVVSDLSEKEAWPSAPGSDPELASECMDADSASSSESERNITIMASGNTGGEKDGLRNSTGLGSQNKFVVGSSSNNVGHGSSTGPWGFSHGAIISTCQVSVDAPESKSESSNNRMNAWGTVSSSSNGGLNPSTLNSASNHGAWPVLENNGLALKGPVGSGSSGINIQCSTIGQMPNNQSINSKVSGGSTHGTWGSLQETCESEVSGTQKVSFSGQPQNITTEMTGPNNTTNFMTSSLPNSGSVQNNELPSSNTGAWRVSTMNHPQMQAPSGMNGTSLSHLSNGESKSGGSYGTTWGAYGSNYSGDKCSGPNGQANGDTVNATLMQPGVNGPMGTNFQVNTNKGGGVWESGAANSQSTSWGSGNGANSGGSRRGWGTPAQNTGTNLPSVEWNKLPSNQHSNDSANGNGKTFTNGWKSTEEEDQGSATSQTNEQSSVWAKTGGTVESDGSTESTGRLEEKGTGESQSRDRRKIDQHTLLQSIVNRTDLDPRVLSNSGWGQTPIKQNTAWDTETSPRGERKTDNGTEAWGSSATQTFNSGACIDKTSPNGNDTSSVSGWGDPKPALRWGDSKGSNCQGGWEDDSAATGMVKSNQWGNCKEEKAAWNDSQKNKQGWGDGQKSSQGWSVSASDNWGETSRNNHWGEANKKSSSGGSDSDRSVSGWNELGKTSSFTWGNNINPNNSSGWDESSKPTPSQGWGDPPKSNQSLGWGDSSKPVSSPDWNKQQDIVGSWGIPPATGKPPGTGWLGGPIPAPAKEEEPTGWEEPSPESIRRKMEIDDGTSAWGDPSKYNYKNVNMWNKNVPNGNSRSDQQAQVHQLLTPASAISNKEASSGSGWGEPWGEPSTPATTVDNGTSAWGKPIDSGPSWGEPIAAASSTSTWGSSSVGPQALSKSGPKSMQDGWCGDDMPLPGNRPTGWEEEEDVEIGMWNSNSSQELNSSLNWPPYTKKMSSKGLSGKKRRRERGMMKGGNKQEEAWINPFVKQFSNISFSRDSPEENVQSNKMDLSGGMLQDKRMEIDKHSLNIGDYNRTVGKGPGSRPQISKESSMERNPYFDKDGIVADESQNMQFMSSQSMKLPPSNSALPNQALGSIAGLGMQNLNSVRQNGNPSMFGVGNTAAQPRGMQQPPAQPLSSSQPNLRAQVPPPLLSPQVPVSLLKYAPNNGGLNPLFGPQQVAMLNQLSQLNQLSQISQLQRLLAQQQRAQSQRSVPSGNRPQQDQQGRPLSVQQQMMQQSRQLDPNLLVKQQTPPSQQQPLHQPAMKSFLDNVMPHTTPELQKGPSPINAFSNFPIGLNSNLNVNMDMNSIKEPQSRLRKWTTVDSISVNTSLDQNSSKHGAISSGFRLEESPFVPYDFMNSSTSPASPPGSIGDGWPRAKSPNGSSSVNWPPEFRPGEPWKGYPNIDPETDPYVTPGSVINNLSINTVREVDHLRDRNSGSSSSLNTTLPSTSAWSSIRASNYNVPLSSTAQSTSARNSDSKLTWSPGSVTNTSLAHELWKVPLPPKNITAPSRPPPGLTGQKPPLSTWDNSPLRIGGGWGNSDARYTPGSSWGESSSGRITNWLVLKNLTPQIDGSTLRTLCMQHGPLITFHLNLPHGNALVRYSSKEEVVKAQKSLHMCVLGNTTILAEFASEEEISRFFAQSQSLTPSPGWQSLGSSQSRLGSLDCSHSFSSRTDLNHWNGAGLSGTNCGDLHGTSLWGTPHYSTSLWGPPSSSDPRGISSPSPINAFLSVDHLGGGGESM
# Results are given in words; binding and its absence hold for the method and conditions named. Binding seen in cells or lysates may run through a third protein. Some entries that bind do so weakly or less than the wild type.
# Molecular target: Ago2 (human (endogenous in THP-1)) (UniProt Q9UKV8)
# Assay: co-IP; lysate of exosomes (60 ug total exosomal protein; 0.5% NP40, 150 mM KCl, 25 mM Tris, 2 mM EDTA) from supernatants of EV71-infected THP-1 cells (0.1 TCID50); AGO2 antibody and GW182 antibody, 4°C overnight, Protein A/G agarose; rabbit IgG as control; Western blot
substance,measurement,value
GW182 (from UniProt Q8NDV7 1-1962),binding,binds
